Measured data: PubChem BioAssay AID686938 (Drosophila RNAi Screening Center, 2013)
The deposit covers about 23,000 reagents; below is a random part of those that have a named target and a result. Of all reagents, 75 (0.33%) were called active. 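Raw plate signals without normalisation; calls rest on plate z-scores that were not deposited; ratio present for only 364 wells.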 Not given: the dose of the treatment.

- Purpose: 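Knock-downs reducing store-operated calcium influx in Drosophila cells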 (primary screen)
- System: Drosophila S2R+ cells
- Reagent: long dsRNA against Drosophila genes, about 0.25 µg dsRNA per well, roughly 10,000 cells
- Duration: 5 days of knock-down before the calcium assay
- Challenge: thapsigargin (SERCA pump blocker) to empty calcium stores; entry signal taken 4 min after adding it
- Measurement: 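Per-well fluo-4 fluorescence in two replicates, unnormalised, measured in resting cells and 4 min after store depletion by the SERCA blocker thapsigargin; ratio of the two present in few wells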
- Direction: calcium entry signal: higher = stronger calcium signal after store depletion; resting calcium signal: higher = higher resting calcium signal
- Units: calcium entry signal in fluorescence units; resting calcium signal in fluorescence units
- Rule for the call: 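Hit if the duplicate-averaged plate z-score for entry over resting signal is under −3; wells with weak total dye signal (Fmax z < −2) or more than 5 off-targets removed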
- Calls: active = strongly reduced calcium entry; inactive = no strong reduction

{"Gene": "CG32112", "dsRNA": "DRSC09815", "calcium entry signal, replicate 1": 2.15e7, "calcium entry signal, replicate 2": 4.01e7, "resting calcium signal, replicate 1": 1.20e7, "resting calcium signal, replicate 2": 1.76e7, "Outcome": "inactive"}
{"Gene": "mib1", "dsRNA": "DRSC10550", "calcium entry signal, replicate 1": 4.75e7, "calcium entry signal, replicate 2": 4.90e7, "resting calcium signal, replicate 1": 2.08e7, "resting calcium signal, replicate 2": 1.93e7, "Outcome": "inactive"}
{"Gene": "CG18788", "dsRNA": "DRSC02697", "calcium entry signal, replicate 1": 3.29e7, "calcium entry signal, replicate 2": 2.27e7, "resting calcium signal, replicate 1": 1.55e7, "resting calcium signal, replicate 2": 1.13e7, "Outcome": "inactive"}
{"Gene": "mAChR-B", "dsRNA": "DRSC16345", "calcium entry signal, replicate 1": 5.69e7, "calcium entry signal, replicate 2": 4.05e7, "resting calcium signal, replicate 1": 2.74e7, "resting calcium signal, replicate 2": 1.91e7, "Outcome": "inactive"}
{"Gene": "CG8149", "dsRNA": "DRSC16391", "calcium entry signal, replicate 1": 3.27e7, "calcium entry signal, replicate 2": 3.20e7, "resting calcium signal, replicate 1": 1.65e7, "resting calcium signal, replicate 2": 1.59e7, "Outcome": "inactive"}
{"Gene": "qtc", "dsRNA": "DRSC02364", "calcium entry signal, replicate 1": 4.17e7, "resting calcium signal, replicate 1": 1.79e7, "Outcome": "inactive"}
{"Gene": "qtc", "dsRNA": "DRSC02365", "calcium entry signal, replicate 1": 4.03e7, "calcium entry signal, replicate 2": 3.32e7, "resting calcium signal, replicate 1": 1.99e7, "resting calcium signal, replicate 2": 1.69e7, "Outcome": "inactive"}
{"Gene": "LamC", "dsRNA": "DRSC07453", "calcium entry signal, replicate 1": 3.36e7, "calcium entry signal, replicate 2": 4.16e7, "resting calcium signal, replicate 1": 1.51e7, "resting calcium signal, replicate 2": 2.00e7, "Outcome": "inactive"}
{"Gene": "mRpL17", "dsRNA": "DRSC08350", "calcium entry signal, replicate 1": 4.76e7, "calcium entry signal, replicate 2": 5.03e7, "resting calcium signal, replicate 1": 2.23e7, "resting calcium signal, replicate 2": 2.12e7, "Outcome": "inactive"}
{"Gene": "Cyp6d4", "dsRNA": "DRSC16633", "calcium entry signal, replicate 1": 5.61e7, "calcium entry signal, replicate 2": 4.92e7, "resting calcium signal, replicate 1": 2.46e7, "resting calcium signal, replicate 2": 2.09e7, "Outcome": "inactive"}
{"Gene": "CCDC53", "dsRNA": "DRSC03056", "calcium entry signal, replicate 1": 3.63e7, "calcium entry signal, replicate 2": 5.38e7, "resting calcium signal, replicate 1": 1.72e7, "resting calcium signal, replicate 2": 2.32e7, "Outcome": "inactive"}
{"Gene": "CG30380", "dsRNA": "DRSC05069", "calcium entry signal, replicate 1": 3.11e7, "calcium entry signal, replicate 2": 5.46e7, "resting calcium signal, replicate 1": 1.60e7, "resting calcium signal, replicate 2": 2.17e7, "Outcome": "inactive"}
{"Gene": "CG34459", "dsRNA": "DRSC06973", "calcium entry signal, replicate 1": 3.18e7, "calcium entry signal, replicate 2": 3.84e7, "resting calcium signal, replicate 1": 1.39e7, "resting calcium signal, replicate 2": 1.91e7, "Outcome": "inactive"}
{"Gene": "loh", "dsRNA": "DRSC01122", "calcium entry signal, replicate 1": 2.25e7, "calcium entry signal, replicate 2": 5.15e7, "resting calcium signal, replicate 1": 1.81e7, "resting calcium signal, replicate 2": 2.30e7, "Outcome": "inactive"}
{"Gene": "loh", "dsRNA": "DRSC02943", "calcium entry signal, replicate 1": 5.00e7, "calcium entry signal, replicate 2": 5.81e7, "resting calcium signal, replicate 1": 2.32e7, "resting calcium signal, replicate 2": 2.46e7, "Outcome": "inactive"}
{"Gene": "Obp83g", "dsRNA": "DRSC12269", "calcium entry signal, replicate 1": 5.21e7, "calcium entry signal, replicate 2": 3.74e7, "resting calcium signal, replicate 1": 2.48e7, "resting calcium signal, replicate 2": 1.80e7, "Outcome": "inactive"}
{"Gene": "Gfat1", "dsRNA": "DRSC21219", "calcium entry signal, replicate 1": 5.00e7, "calcium entry signal, replicate 2": 4.98e7, "resting calcium signal, replicate 1": 2.39e7, "resting calcium signal, replicate 2": 2.20e7, "Outcome": "inactive"}
{"Gene": "pum", "dsRNA": "DRSC12722", "calcium entry signal, replicate 1": 3.00e7, "calcium entry signal, replicate 2": 4.02e7, "resting calcium signal, replicate 1": 1.47e7, "resting calcium signal, replicate 2": 2.11e7, "Outcome": "inactive"}
{"Gene": "pum", "dsRNA": "DRSC12726", "calcium entry signal, replicate 1": 3.11e7, "calcium entry signal, replicate 2": 5.01e7, "resting calcium signal, replicate 1": 1.50e7, "resting calcium signal, replicate 2": 1.98e7, "Outcome": "inactive"}
{"Gene": "pum", "dsRNA": "DRSC17037", "calcium entry signal, replicate 1": 2.64e7, "calcium entry signal, replicate 2": 6.14e7, "resting calcium signal, replicate 1": 1.42e7, "resting calcium signal, replicate 2": 2.82e7, "Outcome": "inactive"}
{"Gene": "pum", "dsRNA": "DRSC17038", "calcium entry signal, replicate 1": 4.57e7, "calcium entry signal, replicate 2": 3.83e7, "resting calcium signal, replicate 1": 2.38e7, "resting calcium signal, replicate 2": 2.01e7, "Outcome": "inactive"}
{"Gene": "pum", "dsRNA": "DRSC22758", "calcium entry signal, replicate 1": 4.01e7, "calcium entry signal, replicate 2": 4.09e7, "resting calcium signal, replicate 1": 2.47e7, "resting calcium signal, replicate 2": 1.91e7, "Outcome": "inactive"}
{"Gene": "pum", "dsRNA": "DRSC22794", "calcium entry signal, replicate 1": 4.03e7, "calcium entry signal, replicate 2": 3.65e7, "resting calcium signal, replicate 1": 1.90e7, "resting calcium signal, replicate 2": 1.93e7, "Outcome": "inactive"}

3 of these entries, set out differently:
Gene,dsRNA,"calcium entry signal, replicate 1","calcium entry signal, replicate 2","resting calcium signal, replicate 1","resting calcium signal, replicate 2",Outcome
CG34459,DRSC06973,3.18e7,3.84e7,1.39e7,1.91e7,inactive
loh,DRSC01122,2.25e7,5.15e7,1.81e7,2.30e7,inactive
loh,DRSC02943,5.00e7,5.81e7,2.32e7,2.46e7,inactive
